The record followed here is paper PMC11548879.

This series deals with HpARI2 (Heligmosomoides polygyrus bakeri). In words: EMSA. The settings on record: effectively bound all DNA, pH 7.5, 30 min, room temperature, recombinant protein, protein details: C-terminal c-myc, 6xHis, label: IR700 (printed at 5' of S1).

For at least one entry, the source does not settle the construct or the ends of the probe.

As to “AACTTTGCCATTGTGGAAGG / CCTTCCACAATGCCAAAGTT [IR700 EMSA oligonucleotide probe]”, the binding result is listed as “binds”.
